These results are taken from paper PMC9124971.

By UniProt entry, the sequences of proteins in these tests, tags left out.
UniProt P48432: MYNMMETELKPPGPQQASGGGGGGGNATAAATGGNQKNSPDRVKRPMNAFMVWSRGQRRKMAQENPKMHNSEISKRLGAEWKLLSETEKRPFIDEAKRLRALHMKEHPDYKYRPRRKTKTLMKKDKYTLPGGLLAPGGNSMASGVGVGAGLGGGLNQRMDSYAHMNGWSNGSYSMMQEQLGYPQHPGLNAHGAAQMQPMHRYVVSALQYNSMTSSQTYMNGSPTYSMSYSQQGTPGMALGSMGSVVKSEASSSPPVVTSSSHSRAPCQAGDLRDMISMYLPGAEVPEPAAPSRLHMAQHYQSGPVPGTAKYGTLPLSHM
UniProt Q6PDQ2: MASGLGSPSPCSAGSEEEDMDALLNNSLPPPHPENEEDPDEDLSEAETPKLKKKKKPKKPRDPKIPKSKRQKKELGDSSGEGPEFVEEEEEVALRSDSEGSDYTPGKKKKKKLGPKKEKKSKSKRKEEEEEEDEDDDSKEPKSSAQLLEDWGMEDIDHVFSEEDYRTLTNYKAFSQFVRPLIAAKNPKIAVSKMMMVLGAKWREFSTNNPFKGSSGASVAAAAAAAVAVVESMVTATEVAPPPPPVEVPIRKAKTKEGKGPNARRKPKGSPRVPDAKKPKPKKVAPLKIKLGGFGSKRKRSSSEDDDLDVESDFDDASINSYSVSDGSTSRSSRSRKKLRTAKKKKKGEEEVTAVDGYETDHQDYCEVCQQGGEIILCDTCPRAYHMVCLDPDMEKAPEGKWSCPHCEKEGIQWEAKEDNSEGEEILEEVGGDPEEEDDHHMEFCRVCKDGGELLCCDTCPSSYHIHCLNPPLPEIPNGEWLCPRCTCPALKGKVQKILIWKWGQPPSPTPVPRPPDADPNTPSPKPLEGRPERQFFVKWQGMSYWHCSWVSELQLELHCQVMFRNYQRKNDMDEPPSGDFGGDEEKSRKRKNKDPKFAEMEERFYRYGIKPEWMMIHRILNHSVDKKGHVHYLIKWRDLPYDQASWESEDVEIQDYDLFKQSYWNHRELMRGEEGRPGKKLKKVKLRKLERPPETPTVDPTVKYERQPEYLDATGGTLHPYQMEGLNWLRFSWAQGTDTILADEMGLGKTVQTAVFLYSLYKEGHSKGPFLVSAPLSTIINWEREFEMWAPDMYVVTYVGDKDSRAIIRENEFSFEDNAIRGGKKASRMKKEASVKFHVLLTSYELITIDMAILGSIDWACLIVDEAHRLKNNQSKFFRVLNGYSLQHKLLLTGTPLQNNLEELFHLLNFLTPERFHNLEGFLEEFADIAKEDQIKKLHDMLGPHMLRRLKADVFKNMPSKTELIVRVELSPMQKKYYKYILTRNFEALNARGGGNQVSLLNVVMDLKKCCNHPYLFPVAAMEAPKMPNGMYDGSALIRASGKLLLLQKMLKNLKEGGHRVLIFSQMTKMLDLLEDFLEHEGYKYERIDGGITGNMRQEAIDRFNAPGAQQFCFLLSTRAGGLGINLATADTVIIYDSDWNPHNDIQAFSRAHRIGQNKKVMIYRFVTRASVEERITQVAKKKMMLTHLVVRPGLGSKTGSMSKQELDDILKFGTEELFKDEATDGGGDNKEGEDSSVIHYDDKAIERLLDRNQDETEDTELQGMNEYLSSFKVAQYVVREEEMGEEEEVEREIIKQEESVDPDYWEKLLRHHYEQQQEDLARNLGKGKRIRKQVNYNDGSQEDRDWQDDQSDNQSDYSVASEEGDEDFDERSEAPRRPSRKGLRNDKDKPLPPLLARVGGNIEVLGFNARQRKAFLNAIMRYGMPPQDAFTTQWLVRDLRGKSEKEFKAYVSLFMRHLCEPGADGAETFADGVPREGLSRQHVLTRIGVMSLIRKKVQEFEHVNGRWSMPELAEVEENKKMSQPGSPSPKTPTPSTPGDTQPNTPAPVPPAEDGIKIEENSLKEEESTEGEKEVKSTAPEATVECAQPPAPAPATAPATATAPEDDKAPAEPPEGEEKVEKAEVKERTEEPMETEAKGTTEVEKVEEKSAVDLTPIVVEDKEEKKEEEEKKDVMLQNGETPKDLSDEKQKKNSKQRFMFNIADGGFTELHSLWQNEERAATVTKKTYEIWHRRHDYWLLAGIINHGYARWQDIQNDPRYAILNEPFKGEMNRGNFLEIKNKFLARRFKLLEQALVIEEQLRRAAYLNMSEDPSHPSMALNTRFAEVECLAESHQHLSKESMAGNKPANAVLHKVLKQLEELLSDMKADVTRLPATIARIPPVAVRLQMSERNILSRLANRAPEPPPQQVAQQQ
UniProt P58463: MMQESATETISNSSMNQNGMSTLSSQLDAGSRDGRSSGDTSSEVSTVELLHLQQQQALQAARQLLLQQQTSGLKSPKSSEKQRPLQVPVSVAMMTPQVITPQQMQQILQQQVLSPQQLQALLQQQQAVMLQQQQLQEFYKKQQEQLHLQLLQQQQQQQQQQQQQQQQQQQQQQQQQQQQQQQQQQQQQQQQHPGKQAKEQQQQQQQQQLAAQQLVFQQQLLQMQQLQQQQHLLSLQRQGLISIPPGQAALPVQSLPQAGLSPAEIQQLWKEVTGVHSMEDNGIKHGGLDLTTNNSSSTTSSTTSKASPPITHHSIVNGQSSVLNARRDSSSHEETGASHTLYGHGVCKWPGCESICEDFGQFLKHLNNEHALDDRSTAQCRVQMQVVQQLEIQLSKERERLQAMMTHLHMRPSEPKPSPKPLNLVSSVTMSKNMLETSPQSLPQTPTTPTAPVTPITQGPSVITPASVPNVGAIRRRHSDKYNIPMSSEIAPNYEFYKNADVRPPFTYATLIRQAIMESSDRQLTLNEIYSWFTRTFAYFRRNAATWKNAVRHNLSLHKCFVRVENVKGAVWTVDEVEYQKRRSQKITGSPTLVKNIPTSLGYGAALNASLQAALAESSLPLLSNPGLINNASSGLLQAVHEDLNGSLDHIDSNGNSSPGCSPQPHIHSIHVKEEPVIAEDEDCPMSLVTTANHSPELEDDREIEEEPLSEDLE

These are yes or no findings as the source states them, for the method shown. In cells and extracts the contact can be indirect. These calls come from enrichment with a bait or labelling near it, and not all partners need be listed.

The assay deals with biotinylatable tagged SOX2 (bioSOX2), biotinylated in vivo by birA (mouse) (UniProt P48432). As to the kind of experiment: affinity purification with mass spectrometry; biotinylated SOX2 and associated proteins precipitated with streptavidin magnetic beads from nuclear protein extracts of E18.5 bioSOX2/birA mouse lungs; control mouse lungs as control.

In the case of “Chromodomain Helicase DNA binding protein 4 (CHD4), endogenous in mouse lung (from UniProt Q6PDQ2 1-1915)”, the binding entry was “binds”.

With “Forkhead box protein FOXP2, endogenous in mouse lung (from UniProt P58463 1-714)”, the binding result is reported as “binds”.

B1: Forkhead box protein FOXP4, endogenous in mouse lung (protein, UniProt Q9DBY0 1-795)
chain: MMVESASETIRSAPSGQNGVGSLSAQADGGGGAGTAGTAPAAGRDASGREAASGGADSNGEMSPAELLHFQQQQALQVARQFLLQQASSLNSPGNNDSKQSASAVQVPVSVAMMSQQMLTPQQMQQILSPPQLQALLQQQQALMLQQLQEYYKKQQEQLHLQLLTQQQAGKQQPKEALGNKQLAFQQQLLQMQQLQQQHLLNLQRQGLVSLQPSQASGPLQALPQAVCPTDLPQLWKGEGAPGQPAEDSGRQEGLDLASTAVTATSFASPPKVSPPLSHHPLPNGQPTVLTSRRDSSSHEETPSSHPLYGHGECKWPGCETLCEDLGQFIKHLNTEHALDDRSTAQCRVQMQVVQQLEIQLAKESERLQAMMAHLHMRPSEPKPFSQPVTVSADPFPDGLVHPPTSAAAPVTPLRPPGLGSASLHSGGPARRRSNDKFCSPISSELAQNHEFYKNADVRPPFTYASLIRQAILETPDRQLTLNEIYNWFTRMFAYFRRNTATWKNAVRHNLSLHKCFVRVENVKGAVWTVDEREYQKRRPPKMTGSPTLVKNMISGLSYGALNASYQAALAESSFPLLSNPGMLNPGSASSLLPLSQEDLGVPGEPLPSNGSSSPPRLSPPQYSHQIQVKEEPAEAEEDRRPGPPLGAPNPSTVGPPEDRDLEEDLGGEDMPSQPCPLIPGWKPSLLHLSYCVKPKFTVSVGSKTPSSPLPPPPRVQGSYSLPPCSYLAYGDMRGQNPAPSPGLLSGVGGGLFRCLHRTKSPSLPGVWILAAELETMRFHRPPMGDPQPKTADWV
B1: the binding result is “binds”.
